Test results as given in the supplement of paper PMC6078165.
The reference is the same well before dosing, and untreated signal decays as well.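 Fibroblast labels name human fibroblasts: mostly primary ones from tissues such as uterus (C12385, HUF), lung (H6013), bone (Hs27A), adrenal (HADF) and skin (WS1), plus mammary HMF and breast cancer-associated Hs343T. The cancer cells are basal-like or mesenchymal-like triple-negative breast cancer lines. The paper calls a changed response a hit when it shifts by more than 3x the replicate standard deviation. The tissue of the other fibroblasts is not given here.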

Test system: MDAMB468
Experiment: relative JC-1 red fluorescence (viability) vs pre-drug, coculture with fibroblast (fraction); higher = more viable cancer cells
Experimental: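 JC-1 labelled TNBC cells cocultured 1:1 (1,500 cells each) with CellTrace Violet stained primary or stromal fibroblasts in 384-well plates in FluoroBrite medium, treated with one of 42 anticancer drugs at 0.1, 1, 10 or 100 uM. JC-1 red fluorescence (mitochondrial integrity in cancer cells only) was read by plate reader every 8 h for 72 h. Values are normalised to each well's pre-drug value. The stock of one drug was tenfold lower, so its dose labels may be too high.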

CC/C(=C(\c1ccccc1)c1ccc(OCCN(C)C)cc1)c1ccccc1 [Tamoxifen]
relative JC-1 red fluorescence
Conditions | 8 h | 16 h | 24 h | 32 h | 40 h | 48 h | 56 h | 64 h | 72 h
0.1 µM, coculture fibroblast: C12385 | 0.904 | 0.835 | 0.841 | 0.7994 | 0.7658 | 0.76921 | 0.7332 | 0.7168 | 0.716
0.1 µM, coculture fibroblast: H6013 | 0.898 | 0.835 | 0.814 | 0.805 | 0.766 | 0.767 | 0.739 | 0.727 | 0.686
0.1 µM, coculture fibroblast: H6019 | 0.816 | 0.801 | 0.788 | 0.747 | 0.699 | 0.699 | 0.651 | 0.62 | 0.597
0.1 µM, coculture fibroblast: H6076 | 0.951 | 0.905 | 0.891 | 0.905 | 0.839 | 0.836 | 0.801 | 0.792 | 0.855
0.1 µM, coculture fibroblast: H6231 | 0.81 | 0.95 | 0.877 | 0.825 | 0.756 | 0.724 | 0.67 | 0.645 | 0.631
0.1 µM, coculture fibroblast: HADF | 0.90003 | 0.82 | 0.781 | 0.784 | 0.727 | 0.717 | 0.67 | 0.658 | 0.617
0.1 µM, coculture fibroblast: HCFa | 0.888 | 0.84 | 0.796 | 0.767 | 0.69 | 0.676 | 0.622 | 0.584 | 0.545
0.1 µM, coculture fibroblast: HCPF | 0.8999 | 0.976 | 0.8501 | 0.862 | 0.7936 | 0.7703 | 0.722 | 0.71719 | 0.711
0.1 µM, coculture fibroblast: HHSteC | 0.908 | 0.831 | 0.796 | 0.754 | 0.716 | 0.716 | 0.653 | 0.631 | 0.585
0.1 µM, coculture fibroblast: HMF | 0.8529 | 0.94755 | 0.874 | 0.849 | 0.7798 | 0.75951 | 0.7025 | 0.6802 | 0.66656
0.1 µM, coculture fibroblast: HPFa | 0.941 | 0.9001 | 0.841 | 0.797 | 0.756 | 0.743 | 0.672 | 0.64 | 0.565
0.1 µM, coculture fibroblast: HUF | 0.9 | 0.8074 | 0.743 | 0.68 | 0.631 | 0.609 | 0.569 | 0.541 | 0.516
0.1 µM, coculture fibroblast: Hs5 | 0.894 | 0.92 | 0.9048 | 0.9038 | 0.8345 | 0.81627 | 0.7903 | 0.7586 | 0.788
0.1 µM, coculture fibroblast: Hs27A | 0.86232 | 0.8099 | 0.7844 | 0.782 | 0.7371 | 0.738 | 0.6888 | 0.671 | 0.6119
0.1 µM, coculture fibroblast: Hs343T | 0.917 | 0.867 | 0.884 | 0.8746 | 0.808 | 0.782 | 0.728 | 0.714 | 0.69
0.1 µM, coculture fibroblast: WS1 | 0.8887 | 0.772 | 0.727 | 0.672 | 0.64 | 0.614 | 0.587 | 0.561 | 0.555
1 µM, coculture fibroblast: C12385 | 0.881 | 0.824 | 0.796 | 0.7438 | 0.70613 | 0.7 | 0.6563 | 0.6294 | 0.61395
1 µM, coculture fibroblast: H6013 | 0.9036 | 0.87 | 0.83506 | 0.835 | 0.816 | 0.83 | 0.801 | 0.787 | 0.739
1 µM, coculture fibroblast: H6019 | 0.836 | 0.803 | 0.7932 | 0.7491 | 0.7128 | 0.706 | 0.6585 | 0.6207 | 0.6004
1 µM, coculture fibroblast: H6076 | 0.911 | 0.956 | 0.963 | 0.915 | 0.94 | 0.942 | 0.927 | 0.921 | 0.922
1 µM, coculture fibroblast: H6231 | 0.844 | 0.917 | 0.832 | 0.82 | 0.759 | 0.739 | 0.697 | 0.669 | 0.66
1 µM, coculture fibroblast: HADF | 0.92013 | 0.8647 | 0.824 | 0.8236 | 0.779 | 0.775 | 0.731 | 0.723 | 0.669
1 µM, coculture fibroblast: HCFa | 0.856 | 0.8325 | 0.766 | 0.749 | 0.688 | 0.674 | 0.624 | 0.588 | 0.536
1 µM, coculture fibroblast: HCPF | 0.8974 | 0.8816 | 0.8267 | 0.83371 | 0.7639 | 0.733 | 0.7004 | 0.6981 | 0.694
1 µM, coculture fibroblast: HHSteC | 0.906 | 0.866 | 0.825 | 0.8 | 0.757 | 0.751 | 0.689 | 0.657 | 0.613
1 µM, coculture fibroblast: HMF | 0.831 | 0.936 | 0.892 | 0.871 | 0.8075 | 0.7903 | 0.739 | 0.725 | 0.712
1 µM, coculture fibroblast: HPFa | 0.9356 | 0.89974 | 0.857 | 0.811 | 0.783 | 0.779 | 0.703 | 0.671 | 0.586
1 µM, coculture fibroblast: HUF | 0.941 | 0.8646 | 0.8154 | 0.747 | 0.6933 | 0.6709 | 0.6255 | 0.6045 | 0.578
1 µM, coculture fibroblast: Hs5 | 0.9858 | 0.901 | 0.89 | 0.834 | 0.8 | 0.794 | 0.897 | 0.876 | 0.76
1 µM, coculture fibroblast: Hs27A | 0.8826 | 0.85 | 0.817 | 0.824 | 0.781 | 0.775 | 0.737 | 0.712 | 0.66
1 µM, coculture fibroblast: Hs343T | 0.8989 | 0.93 | 0.9 | 0.8994 | 0.821 | 0.808 | 0.773 | 0.7492 | 0.735
1 µM, coculture fibroblast: WS1 | 0.888 | 0.802 | 0.764 | 0.698 | 0.659 | 0.632 | 0.6 | 0.581 | 0.571
10 µM, coculture fibroblast: C12385 | 0.8975 | 0.9585 | 0.747 | 0.779 | 0.826 | 0.825 | 0.7201 | 0.7492 | 0.727
10 µM, coculture fibroblast: H6013 | 0.907 | 0.896 | 0.769 | 0.9202 | 0.861 | 0.849 | 0.818 | 0.886 | 0.825
10 µM, coculture fibroblast: H6019 | 0.885 | 0.94 | 0.91 | 0.931 | 0.831 | 0.87 | 0.833 | 0.906 | 0.873
10 µM, coculture fibroblast: H6076 | 0.952 | 0.755 | 0.855 | 0.755 | 0.875 | 0.813 | 0.908 | 0.801 | 0.841
10 µM, coculture fibroblast: H6231 | 0.846 | 0.839 | 0.936 | 0.923 | 0.892 | 0.89 | 0.838 | 0.811 | 0.802
10 µM, coculture fibroblast: HADF | 0.921 | 0.881 | 0.842 | 0.894 | 0.811 | 0.817 | 0.811 | 0.834 | 0.813
10 µM, coculture fibroblast: HCFa | 0.883 | 0.88 | 0.91 | 0.849 | 0.947 | 0.871 | 0.851 | 0.834 | 0.935
10 µM, coculture fibroblast: HCPF | 0.8694 | 0.873 | 0.77 | 0.792 | 0.738 | 0.859 | 0.775 | 0.839 | 0.743
10 µM, coculture fibroblast: HHSteC | 0.912 | 0.856 | 0.81 | 0.8537 | 0.847 | 0.822 | 0.819 | 0.876 | 0.784
10 µM, coculture fibroblast: HMF | 0.8728 | 0.746 | 0.73 | 0.828 | 0.817 | 0.847 | 0.756 | 0.842 | 0.821
10 µM, coculture fibroblast: HPFa | 0.935 | 0.9897 | 0.78 | 0.737 | 0.861 | 0.727 | 0.855 | 0.801 | 0.7401
10 µM, coculture fibroblast: HUF | 0.9346 | 0.9621 | 0.89 | 0.7699 | 0.791 | 0.835 | 0.832 | 0.8145 | 0.855
10 µM, coculture fibroblast: Hs5 | 0.899 | 0.854 | 0.767 | 0.826 | 0.7412 | 0.872 | 0.868 | 0.785 | 0.897
10 µM, coculture fibroblast: Hs27A | 0.86563 | 0.956 | 0.854 | 0.799 | 0.854 | 0.746 | 0.715 | 0.781 | 0.8059
10 µM, coculture fibroblast: Hs343T | 0.902 | 0.825 | 0.7186 | 0.9316 | 0.7459 | 0.858 | 0.845 | 0.838 | 0.879
10 µM, coculture fibroblast: WS1 | 0.955 | 0.821 | 0.907 | 0.816 | 0.825 | 0.883 | 0.929 | 0.9407 | 0.913
